Results are given in words; binding and its absence hold for the method and conditions named. In cells and extracts the contact can be indirect. Some results given as binding are weak or reduced against the parent protein; the word gives no strength.
How the values were obtained:
[1] = molecular target: orosomucoid 1 (ORM1)–Flag (human) (UniProt P02763); assay: co-IP; C28/I2 cells; IP Lysis Buffer, primary antibody overnight at 4 °C, Protein G-Agarose 2 h, western blot
[2] = molecular target: 52 – 167 amino acid truncation of ORM1 [ORM1(p.52to167)–Flag] (human) (UniProt P02763); assay: as above
[3] = molecular target: orosomucoid 1 (ORM1)–Flag (human) (UniProt P02763); assay: co-IP; HEK-293T cells; IP Lysis Buffer, primary antibody overnight at 4 °C, Protein G-Agarose 2 h, western blot

Amino acid sequences for entries named in this document (tags omitted). A change or cut given only in a name is not applied to a line headed by its entry. Residues count along the entry.
UniProt P02763: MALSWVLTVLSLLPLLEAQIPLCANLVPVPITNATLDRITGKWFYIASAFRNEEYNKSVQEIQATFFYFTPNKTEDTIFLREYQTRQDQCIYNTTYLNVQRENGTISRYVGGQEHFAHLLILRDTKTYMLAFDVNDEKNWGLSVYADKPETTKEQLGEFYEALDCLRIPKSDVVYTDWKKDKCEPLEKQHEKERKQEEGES
52 – 167 amino acid truncation of ORM1 [ORM1(p.52to167)–Flag]: residues 52-167 of P02763
UniProt P08670: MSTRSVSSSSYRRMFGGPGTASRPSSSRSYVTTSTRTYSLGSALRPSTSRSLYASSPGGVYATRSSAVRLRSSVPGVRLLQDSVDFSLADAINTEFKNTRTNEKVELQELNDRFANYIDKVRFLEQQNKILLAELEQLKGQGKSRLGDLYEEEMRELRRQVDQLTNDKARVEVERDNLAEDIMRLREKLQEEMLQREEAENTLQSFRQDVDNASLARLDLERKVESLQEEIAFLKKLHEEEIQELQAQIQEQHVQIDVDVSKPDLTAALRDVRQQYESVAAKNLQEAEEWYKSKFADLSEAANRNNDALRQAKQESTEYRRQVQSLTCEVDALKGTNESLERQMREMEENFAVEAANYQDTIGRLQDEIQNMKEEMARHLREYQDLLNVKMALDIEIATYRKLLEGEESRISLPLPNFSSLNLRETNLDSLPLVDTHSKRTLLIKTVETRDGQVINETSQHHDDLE

Measured: binding

vimentin (VIM) (from UniProt P08670 1-466)
binds: [1] | [2] | [3]
